From paper PMC12750218 (ACS Omega, 2025)

System: human α1-acid glycoprotein (AGP)
Test: Isothermal titration calorimetry of AGP with APR enantiomers
Format: binding
Conditions: ITC, aqueous 5% DMSO, 25 °C, One Set of Sites model

SMILES	Stoichiometric parameter (n)
CCOc1cc([C@@H](CS(C)(=O)=O)N2C(=O)c3cccc(NC(C)=O)c3C2=O)ccc1OC [S-APR, apremilast]	0.8 ± 0.2
CCOc1cc([C@H](CS(C)(=O)=O)N2C(=O)c3cccc(NC(C)=O)c3C2=O)ccc1OC [R-APR, apremilast]	1.3 ± 0.3
